Drawing on PubChem BioAssay AID248 (DTP/NCI, 2004), this text covers survivor count and T/C for 34 molecules.

Molecules are shown by their SMILES. The list is a part of this screen's results and no random one: it is rich in T/C values a quarter to a half above the control, in often repeated tests (any T/C) and in doses without a T/C. Other doses and runs of a compound stand elsewhere. T/C is the treated group as % of the vehicle group. Some entries give survivors of the animals treated and no T/C: the source files T/C as zero there, which appears to mark a toxic dose or a test without result, not a measured value. Some survivor counts are full or nearly so, which does not show that the dose was tolerated: survival well below the control is almost never listed, so the zero probably covers shortened survival too. Counts of survivors are from the toxicity check (mostly the fifth day) where no day follows; animals may have died later. Schedules are NCI's codes, read here as Q, the interval in days (D) or hours (H), X, the number of doses. Some schedules carry Z or #; the key to these is not given. Some entries hold several experiments; their values stand side by side, smallest first. Where survival is the endpoint, this PubChem deposit counts one and a half times the control or more as active, and values a quarter to a half above the control carry no call in these data; other NCI protocols may use other cut-offs.

The test system of this assay is L1210 leukemia ip in BDF1 mice, survival T/C. Briefly: NCI In Vivo Anticancer Drug Screen. Data for tumor model L1210 Leukemia (intraperitoneal) in B6D2F1 (BDF1) mice. The settings on record: T/C endpoint: mean survival time, higher T/C = longer survival.
Where [1] appears, read: dose: 50.0 mg/kg/injection, schedule: Q01DX009 (ip), vehicle: saline with Tween-80.
Where [2] appears, read: dose: 200.0 mg/kg/injection, schedule: Q04DX003 (ip), vehicle: saline.
The mark [3] stands for this setting: dose: 400.0 mg/kg/injection, schedule: Q04DX003 (ip), vehicle: saline.
Setting [4] is: dose: 400.0 mg/kg/injection, schedule: Q04DX003 (ip), vehicle: saline with Tween-80.
[5] abbreviates: dose: 300.0 mg/kg/injection, schedule: Q01DX001 (ip), vehicle: saline.
[6] abbreviates: dose: 400.0 mg/kg/injection, schedule: Q04DX002 (ip), vehicle: saline.
[7] abbreviates: dose: 100.0 mg/kg/injection, schedule: Q04DX002 (ip), vehicle: saline with Tween-80.
Where [8] appears, read: dose: 400.0 mg/kg/injection, schedule: Q04DX003 (ip), vehicle: Klucel (hydroxypropylcellulose) (HPC).
The mark [9] stands for this setting: dose: 200.0 mg/kg/injection, schedule: Q01DX001 (ip), vehicle: saline.
[10] abbreviates: dose: 400.0 mg/kg/injection, schedule: Q01DX001 (ip), vehicle: saline.
Setting [11] is: dose: 200.0 mg/kg/injection, schedule: Q04DX003 (ip), vehicle: saline with Tween-80.
Setting [12] is: dose: 400.0 mg/kg/injection, schedule: Q01DX009 (ip), vehicle: saline.
Setting [13] is: dose: 200.0 mg/kg/injection, schedule: Q01DX009 (ip), vehicle: Klucel (hydroxypropylcellulose) (HPC).
The mark [14] stands for this setting: dose: 400.0 mg/kg/injection, schedule: Q01DX009 (ip), vehicle: Klucel (hydroxypropylcellulose) (HPC).

Take `CCOC(=S)SCCC(=O)O`: the survivor count under setting [1] is reported as 5 of 6 and the survivor count (dose: 200.0 mg/kg/injection, schedule: Q01DX009 (ip), vehicle: saline with Tween-80) is 3 of 6.
Turning to `C#CCN(C)C(C)=O`, the survivor count is reported as 2 of 6 under setting [2] and 0 of 6 under setting [3].
As to `C=C1C2CCC3C4(C)CC(OC5OC(CO)C(OS(=O)(=O)O)C(OS(=O)(=O)O)C5OC(=O)CCCC)CC(C(=O)O)C4CCC3(C2)C1O` (stereo not given), the survivor count is on record as 5 of 6 (dose: 12.5 mg/kg/injection, schedule: Q01DX009 (ip), vehicle: saline) and 3 of 6 under setting [4].
For `O=c1oc2ccccc2c(Cl)c1Cl`, the survivor count reads like this: (dose: 20.0 mg/kg/injection, schedule: Q01DX001 (ip), vehicle: saline) 3 of 6; (dose: 40.0 mg/kg/injection, schedule: Q01DX001 (ip), vehicle: saline) 1 of 6; (dose: 75.0 mg/kg/injection, schedule: Q01DX001 (ip), vehicle: saline) 0 of 6; (dose: 150.0 mg/kg/injection, schedule: Q01DX001 (ip), vehicle: saline) 0 of 6; under setting [5], 0 of 6.
Turning to `C=CCOC(=O)C(F)(F)F`, the survivor count under setting [6] was 0 of 3.
`O=C(C=C(C(F)(F)F)C(F)(F)F)c1c2ccccc2cc2ccccc12`: the survivor count is, setting by setting: (dose: 0.75 mg/kg/injection, schedule: Q01DX009 (ip), vehicle: DMSO) 6 of 6; (dose: 6.0 mg/kg/injection, schedule: Q01DX009 (ip), vehicle: DMSO) 5 of 6; (dose: 12.0 mg/kg/injection, schedule: Q01DX009 (ip), vehicle: DMSO) 5 of 6; (dose: 25.0 mg/kg/injection, schedule: Q04DX003 (ip), vehicle: DMSO) 5 of 6; (dose: 50.0 mg/kg/injection, schedule: Q04DX003 (ip), vehicle: DMSO) 0 of 6; (dose: 100.0 mg/kg/injection, schedule: Q04DX003 (ip), vehicle: DMSO) 2 of 6. Moreover, the survivor count by setting is: (dose: 200.0 mg/kg/injection, schedule: Q04DX003 (ip), vehicle: DMSO) 0 of 6; (dose: 400.0 mg/kg/injection, schedule: Q04DX003 (ip), vehicle: DMSO) 0 of 6.
`C=CCOC(=O)OCc1ccccc1`: where the note is “dose: 500.0 mg/kg/injection, schedule: Q01DX Z (ip), vehicle: methylcellulose (MC)”, the survivor count was 5 of 6.
As to `COc1c(NC(=O)Nc2ccccc2Cl)cccc1[N+](=O)[O-]`, the survivor count is 3 of 3 under setting [7] and 3 of 3 (dose: 200.0 mg/kg/injection, schedule: Q04DX002 (ip), vehicle: saline with Tween-80).
As for `COc1cc(/C=C2\CCC/C(=C\c3ccc(O)c(OC)c3)C2=O)ccc1O`, the survivor count under setting [8] is 6 of 6.
`O=C1OC(c2ccccc2)=N/C1=C\c1ccc2c(c1)OCO2`: where the note is “dose: 400.0 mg/kg/injection, schedule: Q01DX001 (ip), vehicle: carboxymethylcellulose (CMC)”, the survivor count was 6 of 6.
For the molecule `NC(=O)C(c1ccccc1)N1CCCC1` (stereo not given), the survivor count by setting is: under setting [2], 1 of 6; under setting [3], 0 of 6.
Take `Cc1ccc(C(=O)C(F)(F)F)cc1`: the survivor count under setting [4] is listed as 2 of 6.
For the molecule `COc1ccc2c(c1)c1c(C)c3cnccc3c(C)c1n2CCCN`, the survivor count reads like this: (dose: 25.0 mg/kg/injection, schedule: Q04DX003 (ip), vehicle: saline) 6 of 6; (dose: 50.0 mg/kg/injection, schedule: Q04DX003 (ip), vehicle: saline) 4 of 6; (dose: 100.0 mg/kg/injection, schedule: Q04DX003 (ip), vehicle: saline) 1 of 6 and 3 of 6; under setting [2], 4 of 6; under setting [3], 0 of 6.
In the case of `Cc1cc(C)c(C(Br)C(Br)c2c(C)cc(C)cc2C)c(C)c1` (stereo not given), the survivor count under setting [1] is recorded as 6 of 6.
On to `Oc1cc(O)c(CN2CCCCC2)cc1CN1CCCCC1`, for which the survivor count is on record as 1 of 6 under setting [9] and 0 of 6 under setting [10].
`CC1CC(C)(C)N=C(C(Cc2ccccc2)CC(O)c2ccccc2)O1` (stereo not given): the survivor count under setting [11] is given as 6 of 6 and the survivor count under setting [4] is given as 0 of 6.
Consider `CC(NC(=O)OCc1ccccc1)C(=O)NC(Cc1ccccc1)C(=O)OCc1ccccc1` (stereo not given), for which the survivor count under setting [11] was 6 of 6.
Consider `CC(C)(SCc1ccccc1)C(N)C(=O)O` (stereo not given), for which the survivor count under setting [5] is on record as 0 of 6.
As for `Cc1nccc(=O)[nH]1`, the survivor count under setting [12] is reported as 1 of 6.
As to `CN1CCSC1S` (stereo not given), the survivor count reads like this: (dose: 100.0 mg/kg/injection, schedule: Q01DX001 (ip), vehicle: steroid suspending solution) 2 of 4; (dose: 200.0 mg/kg/injection, schedule: Q01DX001 (ip), vehicle: steroid suspending solution) 1 of 4; (dose: 400.0 mg/kg/injection, schedule: Q01DX001 (ip), vehicle: steroid suspending solution) 0 of 4.
For the molecule `O=C(CN1CCCCC1)c1ccc(/C=C/c2ccc(Cl)cc2)cc1`, the survivor count runs as follows: (dose: 100.0 mg/kg/injection, schedule: Q01DX009 (ip), vehicle: Klucel (hydroxypropylcellulose) (HPC)) 6 of 6; under setting [13], 5 of 6; under setting [8], 6 of 6.
Take `CC1C(C)(C)P(=O)(OCCOP2(=O)C(C)(C)C(C)C2(C)C)C1(C)C` (stereo not given): the survivor count under setting [3] is 1 of 4.
`Cc1cccc(C)c1NC(=O)Nc1cccc2ccccc12`: the survivor count (dose: 200.0 mg/kg/injection, schedule: Q01DX009 (ip), vehicle: gum acacia) is reported as 6 of 6.
On to `NC(CS)=NCc1ccccc1`, for which the survivor count by setting is: (dose: 100.0 mg/kg/injection, schedule: Q04DX002 (ip), vehicle: saline) 0 of 3; (dose: 200.0 mg/kg/injection, schedule: Q04DX002 (ip), vehicle: saline) 0 of 3; under setting [6], 0 of 3.
For `CCCCCCCCC(Br)C(Br)CCCCCCCC(=O)O` (stereo not given), the survivor count under setting [7] is listed as 2 of 3.
With `CCCCC(=O)N/N=C/c1ccccc1Cl`, under setting [10], the survivor count was 1 of 6.
For the molecule `CC1=C(/C=C/C(C)=C/C=C/C(C)=C/CO)C(C)(C)CCC1`, under “dose: 100.0 mg/kg/injection, schedule: Q01DX001 (ip), vehicle: other”, the T/C is 139 % of control.
Take `CNC(=O)C(=O)NCCCN1CC1`: the survivor count by setting is: (dose: 50.0 mg/kg/injection, schedule: Q04DX003 (ip), vehicle: Klucel (hydroxypropylcellulose) (HPC)) 4 of 6; (dose: 100.0 mg/kg/injection, schedule: Q04DX003 (ip), vehicle: Klucel (hydroxypropylcellulose) (HPC)) 3 of 6; (dose: 200.0 mg/kg/injection, schedule: Q04DX003 (ip), vehicle: Klucel (hydroxypropylcellulose) (HPC)) 0 of 6; under setting [8], 0 of 6.
For the molecule `CNC(=S)SC`, under setting [10], the survivor count is listed as 1 of 4.
As to `O=[N+]([O-])c1cccc(/C=N/NC(=S)Nc2ccccc2)c1`, under setting [14], the survivor count is reported as 3 of 6.
In the case of `CC(=O)OCc1c(C)[nH]c2ccc(N(C)C)cc2c1=O`, the survivor count (dose: 400.0 mg/kg/injection, schedule: Q01DX009 (ip), vehicle: saline with Tween-80) is listed as 6 of 6.
`Cc1c(N2CCCCC2)[nH]c2ccccc12`: the survivor count is, setting by setting: under setting [13], 6 of 6; under setting [14], 6 of 6.
Consider `CCCCN=CC(C)(C)NCCCC`, for which the survivor count by setting is: under setting [12], 0 of 6; under setting [3], 4 of 6.
Regarding `OC1COC(n2cnc3c(=S)nc[nH]c32)CC1O` (stereo not given), the survivor count is 3 of 6 (dose: 80.0 mg/kg/injection, schedule: Q01DX001 (ip), vehicle: saline); 0 of 6 (dose: 100.0 mg/kg/injection, schedule: Q01DX001 (ip), vehicle: saline); 2 of 6 under setting [9]; 2 of 6 under setting [10].
